Data reported in PubChem BioAssay AID652054 (National Center for Advancing Translational Sciences (NCATS), 2013).
Out of some 360,000 compounds screened, about 9,100 (2.5%) were called active. This list was built around the results that the source calls inconclusive (neither active nor inactive); the mix of calls is not that of the screen. No stated cut-off is given here; in the data, active means max response below about -50%; inconclusive means no clear call, values can overlap the other calls; inactive means above that. Some compounds were tested as several samples or in several runs, with calls that do not always agree.

Chains of the proteins cited; added tags and fusions are not shown.
UniProt P35462, whole entry, looked up: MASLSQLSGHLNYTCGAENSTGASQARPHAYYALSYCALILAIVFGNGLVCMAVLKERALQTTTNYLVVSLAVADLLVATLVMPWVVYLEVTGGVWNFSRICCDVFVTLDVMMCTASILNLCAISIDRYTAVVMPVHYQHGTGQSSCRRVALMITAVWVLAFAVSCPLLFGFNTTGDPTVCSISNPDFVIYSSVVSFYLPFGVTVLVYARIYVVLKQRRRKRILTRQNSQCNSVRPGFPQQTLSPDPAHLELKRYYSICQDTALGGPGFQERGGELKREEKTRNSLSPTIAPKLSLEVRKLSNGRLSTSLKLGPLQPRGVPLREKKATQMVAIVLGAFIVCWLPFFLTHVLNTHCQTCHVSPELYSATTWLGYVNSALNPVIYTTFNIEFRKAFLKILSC

target: D(3) dopamine receptor (Homo sapiens) (UniProt P35462); assay: qHTS of D3 Dopamine Receptor Antagonist: qHTS; details: D3R cells, DiscoveRx beta-arrestin luminescence, antagonist mode; active compounds read low
Method in brief: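 Cells expressing the human receptor were seeded at 1500 cells/well, incubated overnight at 37 degrees C in 5% CO2, then exposed to library compounds with dopamine controls for 90 minutes at 37 degrees C before luminescent detection.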
On the % scale 0 is the no-effect control and ±100 the full control effect.

Max response, negative = inhibition, inconclusive:
Cc1ccc(N2CC(C(=O)OCC(=O)NNC(=O)c3ccccc3)CC2=O)cc1 (configuration not stated) -31.2%
COc1ccc(OC)c(NC(=O)CSc2nnc(-c3ccco3)n2-c2ccc(C(=O)O)cc2)c1 -35.8%
CCOc1ccc(S(=O)(=O)NCCC(=O)NCC(c2ccc(OC)cc2)N2CCCCC2)cc1 (configuration not stated) -45.9%
Cc1cccc(OCC(=O)NCc2n[nH]c(=O)c3ccccc23)c1 -32.1%
Cc1ccc(CCNC(=O)C2CCCN(S(=O)(=O)c3c(C)noc3/C=C/N(C)C)C2)cc1 (configuration not stated) -43.7%
Cc1ccc(S(=O)(=O)N2CCN(c3nc(C(C)C)c4c(c3C#N)CC(C)(C)OC4)CC2)cc1 -31.2%
CCOc1ccccc1C(=O)NCC(=O)NNC(=O)c1cccc(S(=O)(=O)Nc2ccc(OC)cc2)c1 -31%
O=C(COC(=O)Cc1c(F)cccc1Cl)NC1CCS(=O)(=O)C1 (configuration not stated) -41%
O=S(=O)(NCC1CCN(Cc2ccccc2)CC1)c1ccccc1C(F)(F)F -34.1%
S=C1Cc2ccccc2N1 -42.8%
C#CCNC(=O)C1=C[C@H](c2csc3ccccc23)[C@@H](CCCO)[C@H](OCC)O1 -37.3%
COc1ccc(N2CCN(CCCNC(=O)Cn3c(=O)c4cccn4c4cccnc43)CC2)cc1 -39.1%
CCN(CC)C(=O)CSc1ccc(C(F)(F)F)cc1[N+](=O)[O-] -43.3%
O=[N+]([O-])c1ccc(O)c(C=Nc2ccc3nc(-c4ccccc4)[nH]c3c2)c1 -37.7%
Cc1cccc(NC2=Nc3ccccc3N3C2=Nc2c(c(C)nn2-c2ccccc2)C3c2ccc(O)c(O)c2)c1 (configuration not stated) -31%
CCCCCCSc1nnc(-c2cnn(-c3ccccc3)c2-n2cccc2)n1C -42.4%
O=[N+]([O-])c1ccc(OCc2nnc(-c3ccccc3)o2)cc1 -34.2%
O=C(CSc1nc(-c2ccccc2)c(-c2ccccc2)[nH]1)N1CCN(S(=O)(=O)c2ccccc2)CC1 -36.4%
COc1ccc(NC(=S)NC2CCCCC2)c(OC)c1 -34.2%
COCCCNC(=O)C[C@H]1C[C@H](C(=O)N(C(C)C)C(C)C)[C@@]2(C)c3[nH]c4ccc(Cl)cc4c3CCN2C1=O -43.9%
Cc1ccccc1-c1cc(C(=O)NCC2CC2)nn1CC1CC(c2cccc([N+](=O)[O-])c2)=NO1 (configuration not stated) -36.1%
CCCCOc1ccc(C(=O)NNC(=S)NC(=O)CC)cc1 -48.6%
FC(F)(F)c1nnc(-c2ccccc2)nc1Sc1ccccc1 -30.9%
CCC(c1nnnn1-c1ccc2c(c1)OCCO2)N1CCN(c2ncccc2C(F)(F)F)CC1 (configuration not stated) -37.7%
CCOC(=O)c1c(NC(=S)Nc2ccccc2)sc2c1CCN(CC)C2 -41.9%
S=C(NCCc1ccccn1)Nc1ccccc1 -40.1%
C=CCOc1c(Br)cc(CNc2nccs2)cc1OC -43.8%
CCOC(=O)COc1cccc2c(=O)n(CC(=O)NCc3ccc(F)cc3)ccc12 -30.2%
Oc1ccc(-c2[nH]ncc2-c2ccc(Cl)cc2)c(O)c1 -45.2%
COc1ccccc1CCNC(=O)C(=O)Nc1cc2c3c(c1)CC(=O)N3CCC2 -38.4%
Cc1ccc2c(C)c(C(=O)N3CCC(O)(c4ccccc4)CC3)oc2c1C -32.6%
COC(=O)c1ccc(Oc2nc(Nc3ccc(C)c(C)c3)nc(N(C)C)n2)cc1 -34.7%
O=C(CN1C(=O)S/C(=C\c2cccs2)C1=O)Nc1ccc(O)cc1C(=O)O -45.9%
COc1cc(OC)c2c(-c3ccccc3)cc(=O)oc2c1C(CC(=O)N1CCN(c2ccccc2)CC1)c1ccc(N(C)C)cc1 (configuration not stated) -33.8%
COC(=O)C1=COC(C)C2CN3CCc4c([nH]c5ccccc45)C3CC12 (configuration not stated) -36.9%
Cc1csc(SCC(=O)NCCc2ccc(Cl)cc2Cl)n1 -42.3%
CN(c1ccccc1)S(=O)(=O)c1cccc(C(=O)NCc2ccccc2CN2CCCC2)c1 -31.8%
OC(COCc1ccccc1)CN1CCN(c2ccccc2)CC1 (configuration not stated) -45.9%
CCN1C(=O)[C@H]2[C@H]3CN=C(SCc4ccc(C(=O)OC)cc4)N3[C@@](Cc3ccccc3)(C(=O)OC)[C@H]2C1=O -44%
COc1ccc2c3n([n+]([O-])c2c1)CCN=C3c1ccc(C)cc1 -34.4%
c1ccc(CN2CCN(c3nc(N4CCOCC4)c4ccccc4n3)CC2)cc1 -41.7%
COc1cc2c(cc1OC)CN(Cc1cc(OC)c3c(c1)OCO3)CC2 -31.9%
CCOC(=O)N1CCN(C(=O)CSc2nnc(Cc3ccccc3)o2)CC1 -31.8%
CCc1c(C(=O)Nc2ccc(OC)cc2)[nH]c(C)c1C(C)=O -36.9%
CCC1Nc2ncnc(N3CCCCC3)c2N(Cc2ccc(C)cc2)C1=O (configuration not stated) -47.7%
CC1CC(C)CN(CC(=O)Nc2ccc3c(c2)OCCO3)C1 (configuration not stated) -47.9%
O=C(CCl)N(c1ccc(Cl)cc1)c1c[nH]c2ccccc12 -33%
O=C(CN1CCN(CC(=O)c2ccccc2)CC1)c1ccccc1 -32.9%

Max response, negative = inhibition, active:
CCN(CC)CCNc1ccc(CO)c2sc3ccccc3c(=O)c12 -63.2%
C(=C\c1ccccc1)/CN1CCN(C(CCc2ccccc2)c2nnnn2C2CCCC2)CC1 (configuration not stated) -116%
Cc1oc(-c2cccc(Cl)c2)nc1CN1CCC(C(=O)N2CCN(c3ccccn3)CC2)CC1 -50.6%
CCOC(=O)C1CCN(Cc2nc3ccc(Cl)cc3n2CCO)CC1 -66.1%
O=[N+]([O-])c1ccc(N2CCN(CCO)CC2)cc1NCc1ccco1 -62.6%
CCOc1ccc(C(=O)CN2CCN(S(=O)(=O)c3ccc(Cl)cc3)CC2)cc1 -56.6%
Cc1cccc(C)c1OCC(=O)NCc1nnc(SCC(=O)NC2CCCCC2)n1C -72%
O=C(c1cnc2sccn2c1=O)N1CCc2ccccc2C1 -95.9%
CC(C)OC(=O)c1cccc(C(=O)Oc2ccccc2)n1 -58.9%
COC(=O)c1ccccc1-c1c2ccc(=N)cc-2oc2cc(N)ccc12 -64.5%
NC(=O)c1ccc(NCCc2cccs2)cc1 -50.2%
Cn1c(C(=O)NCCN2CCc3ccccc3C2)cc2c(=O)n(C)c3ccccc3c21 -88.2%
COc1ccc(Cl)cc1N1C(=O)C2CCCN2C1c1sccc1C (configuration not stated) -63.4%
O=C(CCN1CCN(c2ccccc2)CC1)c1ccc(Cl)cc1 -70.1%
CC(C)(C)NC(=O)CN1CCC(O)(c2ccccc2)CC1 -203%
COc1ccc(C(CNC(=O)c2cccc(NS(=O)(=O)c3ccccc3)c2)N2CCCC2)cc1 (configuration not stated) -88%
Cc1ccsc1/C=C/C1=NCCCN1C -52.1%
CCN1/C(=C(\O)c2ccccc2)C(=O)c2ccccc2S1(=O)=O -56.4%

Max response, negative = inhibition, inactive:
COC(=O)c1c(NC(=O)c2ccco2)sc2c1CCC2 -14.4%
COc1ccc(S(=O)(=O)N2CCC(NC(=O)OCc3c(Cl)cccc3Cl)CC2)cc1 12.6%
COc1cc(C)ccc1OCCOCCOc1ccccc1[N+](=O)[O-] 0.186%
O=c1cc2c(nn1Cc1ccc(Cl)cc1Cl)-c1ccccc1CC2 -5.79%
Cc1ccc(-c2cc(C(=O)N3CCCc4ccccc43)c3ccccc3n2)cc1 -14.8%
CC(C)CC1(C(=O)NCc2cc(F)cc(C(F)(F)F)c2)C=CCN1C(=O)c1ccccc1 (configuration not stated) -28.4%
COCC(C)NCc1cc(Br)ccc1OC (configuration not stated) 13.9%
NC1=NC[C@H](c2ccccc2)N1CCc1cccc(F)c1 -13.3%
COc1ccc(NC(=O)COC(=O)CNC(=O)c2cccs2)cc1Cl 8.97%
CC(=O)Nc1ccc(N=NC2C(=O)N(C(N)=S)N=C2C)cc1 (configuration not stated) -12.9%
C/C(N)=C(/C#N)C(=O)CSc1nc2ccccc2c(=O)n1Cc1ccc(C)cc1 -22.6%
CCN1CCc2nc(N)oc2CC1 -15.9%
Cc1nn2c(N3CCOCC3)c3c(nc2c1-c1ccccc1)CCCC3 8.97%
COc1ccc(C2=CC(c3sccc3C)n3nnnc3N2)cc1 (configuration not stated) 24.6%
O=C(c1cc2ccccc2o1)N1CCN(S(=O)(=O)c2ccc(Cl)s2)CC1 -0.155%
Cn1c(NCC(O)c2ccccc2)nc2c1c(=O)n(Cc1ccc(Cl)cc1)c(=O)n2C (configuration not stated) 0.509%
COc1ccc(CNC(=O)CN2C(=O)c3ccccc3C2=O)cc1 0.892%
O=C(NCC(=O)N1CCN(Cc2c(F)cccc2Cl)CC1)c1cccc(Cl)c1 -5.23%
CC(NC(=O)C(=O)NCCN1CCN(C(=O)c2ccc([N+](=O)[O-])cc2)CC1)c1ccccc1 (configuration not stated) -2.4%
CC(C)CC(OC(=O)c1ccco1)C(=O)NC1CCCC1 (configuration not stated) 3.4%
CS(=O)(=O)N1CCN(C(=O)c2cc(-c3cccs3)nc3ccccc23)CC1 -20.9%

Quoted at random: 6 entries already listed, in no set order.
Max response, negative = inhibition, inactive:
O=c1cc2c(nn1Cc1ccc(Cl)cc1Cl)-c1ccccc1CC2 -5.79%
O=C(c1cc2ccccc2o1)N1CCN(S(=O)(=O)c2ccc(Cl)s2)CC1 -0.155%
CS(=O)(=O)N1CCN(C(=O)c2cc(-c3cccs3)nc3ccccc23)CC1 -20.9%
CC(NC(=O)C(=O)NCCN1CCN(C(=O)c2ccc([N+](=O)[O-])cc2)CC1)c1ccccc1 (configuration not stated) -2.4%
Cn1c(NCC(O)c2ccccc2)nc2c1c(=O)n(Cc1ccc(Cl)cc1)c(=O)n2C (configuration not stated) 0.509%
NC1=NC[C@H](c2ccccc2)N1CCc1cccc(F)c1 -13.3%
